# Experimental data: PubChem BioAssay AID2551 (National Center for Advancing Translational Sciences (NCATS), 2010)
# The chains behind the UniProt entries cited, without tags or fusion partners. Where a name states a change or a piece, a line headed by the entry shows the natural chain unless it says otherwise.
# UniProt P51450: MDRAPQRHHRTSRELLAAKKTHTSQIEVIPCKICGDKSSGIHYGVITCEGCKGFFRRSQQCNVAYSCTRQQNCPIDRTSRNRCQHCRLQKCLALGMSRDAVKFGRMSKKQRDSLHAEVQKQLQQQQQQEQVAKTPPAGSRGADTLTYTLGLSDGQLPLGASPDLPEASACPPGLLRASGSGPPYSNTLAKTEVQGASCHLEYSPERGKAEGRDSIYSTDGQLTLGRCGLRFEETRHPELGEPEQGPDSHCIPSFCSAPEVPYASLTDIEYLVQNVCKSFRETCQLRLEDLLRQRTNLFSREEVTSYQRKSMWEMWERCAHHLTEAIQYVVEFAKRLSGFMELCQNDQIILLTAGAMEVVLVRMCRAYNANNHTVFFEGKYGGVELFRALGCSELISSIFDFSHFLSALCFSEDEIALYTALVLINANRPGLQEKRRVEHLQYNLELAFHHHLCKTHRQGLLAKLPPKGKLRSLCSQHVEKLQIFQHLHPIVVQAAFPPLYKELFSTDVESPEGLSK
# Hit rate of the full screen: of about 310,000 compounds, about 17,000 (5.5%) were called active. This list was built around the results that the source calls inconclusive (neither active nor inactive); the mix of calls is not that of the screen. The call rests on the fitted dose curve; in most records, active means well fitted inhibition curve with a large enough effect; inconclusive means small, poorly fitted or top-dose-only effect, or effect the other way; inactive means no such curve, though single readings can be large or run the other way. Where the call is inconclusive, the potency comes from a doubtful curve fit.
# Molecular target: Nuclear receptor ROR-gamma (Mus musculus) (UniProt P51450)
# Experiment: qHTS for inhibitors of ROR gamma transcriptional activity; further: nearly all actives have a fitted effect of over 60% in size
# Conditions: Drosophila S2 Gal4-RORgamma UAS-luciferase reporter, 20 h; activity change, negative = inhibition: at 53.6 µM (top of the series)
# Method in brief: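 Schneider cells (Drosophila), stable Gal4 DBD–ROR gamma + UAS-luc; 1 hr cmpd preincubation; Cu2+ induction 700 uM final; 20 hr ambient; luminescence.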
# On the % scale 0 is the no-effect control and ±100 the full control effect; potency means the concentration at half of the fitted maximal effect.
Compound,Potency,"activity change, negative = inhibition"
Brc1ccc(/C=N/Nc2nncc(-c3ccccc3)n2)o1,active: 3.55 µM,
CCOc1cc(/C=C/c2ccc3cccc([N+](=O)[O-])c3n2)ccc1OCC(=O)N(C)C,"inconclusive: 7.08 µM [activator, full curve, poor fit]",
Cc1ccc2oc(=O)c(/C=C(\O)CC(C)C)nc2c1,"inconclusive: 35.5 µM [inhibitor, single point]",
O=[N+]([O-])c1ccc(-c2csc(N3CCCCCC3)n2)cc1,"inconclusive: 31.6 µM [activator, single point]",
CC(C)C(c1nnnn1C1CCCC1)N1c2ccccc2CC1C (configuration not stated),"inconclusive: 31.6 µM [activator, single point]",
O=c1oc2ccccc2c(Nc2cccc3ccccc23)c1[N+](=O)[O-],"inconclusive: 25.1 µM [inhibitor, single point]",
CCCCN(C(=O)c1cccc(C)c1)c1c(N)n(CCC)c(=O)[nH]c1=O,"inconclusive: 2.82 µM [inhibitor, full curve, poor fit]",
COc1ccc(OC)c(S(=O)(=O)N2CCN(c3ncccn3)CC2)c1,,inactive: -6.01%
COC(=O)CSc1ncnc2c1sc1nc3c(cc12)COC(C)(C)C3,,inactive: -24.5%
COc1ccc(N2Cc3ccccc3C2=O)cc1,,inactive: -1.97% [at 1.91 µM]
COc1ccc(Cl)cc1NC(=O)COC(=O)c1cc(NS(=O)(=O)c2cccs2)ccc1O,"inconclusive: 8.91 µM [activator, partial curve]",
COc1ccc2c(c1)-c1c(ssc1=S)C(C)(C)N2,,inactive: -21.8%
O=S(=O)(c1ccccc1)N1c2cc(Cl)ccc2Oc2nc3ccccc3nc21,"inconclusive: 3.55 µM [activator, full curve]",
Cn1c(=O)c2c(n3cnnc13)-c1ccccc1CC21CCCC1,"inconclusive: 31.6 µM [inhibitor, single point]",
N#Cc1ccc(-c2nc3cc(Cl)ccc3c(=O)n2O)cc1,,inactive: -76.8%
CCN1C(=O)/C(=C\c2ccncc2)SC1=Nc1ccc(C)c(C)c1,active: 11.2 µM,
CCOc1cc(/C=N\NC(=O)Cn2nc([N+](=O)[O-])cc2C)ccc1OCc1cccc2ccccc12,"inconclusive: 2 µM [inhibitor, full curve]",
Cc1ccc(C(=O)N/N=C\c2ccc[nH]2)cc1[N+](=O)[O-],active: 2 µM,
Cc1ccc2sc(N(CCCN(C)C)C(=O)c3ccc(Br)s3)nc2c1C,"inconclusive: 20 µM [inhibitor, single point]",
N#Cc1c2c(c(-c3ccccc3Cl)[nH]c1=S)CCCC2,active: 15.8 µM,
CSc1ccc(S(=O)(=O)Nc2ccc(S(=O)(=O)Nc3ccc(C)cc3)cc2)cc1,,inactive: -5.28%
O=C(NCc1ccco1)c1csc2c1CCCC2,"inconclusive: 10 µM [activator, partial curve]",
Cc1cccc(NC(=S)NCCSc2ccc(Cl)cc2)c1,active: 3.16 µM,
Cc1ccc(S(=O)(=O)N2CCC(=O)N(C(COC(=O)Nc3ccccc3)Cc3ccccc3)CC2)cc1 (configuration not stated),inactive,

# 9 of these compounds, reformatted:
Compound	Potency	activity change, negative = inhibition
COc1ccc(Cl)cc1NC(=O)COC(=O)c1cc(NS(=O)(=O)c2cccs2)ccc1O	inconclusive: 8.91 µM [activator, partial curve]	
COc1ccc2c(c1)-c1c(ssc1=S)C(C)(C)N2		inactive: -21.8%
O=S(=O)(c1ccccc1)N1c2cc(Cl)ccc2Oc2nc3ccccc3nc21	inconclusive: 3.55 µM [activator, full curve]	
Cn1c(=O)c2c(n3cnnc13)-c1ccccc1CC21CCCC1	inconclusive: 31.6 µM [inhibitor, single point]	
N#Cc1ccc(-c2nc3cc(Cl)ccc3c(=O)n2O)cc1		inactive: -76.8%
CCN1C(=O)/C(=C\c2ccncc2)SC1=Nc1ccc(C)c(C)c1	active: 11.2 µM	
CCOc1cc(/C=N\NC(=O)Cn2nc([N+](=O)[O-])cc2C)ccc1OCc1cccc2ccccc12	inconclusive: 2 µM [inhibitor, full curve]	
Cc1ccc(C(=O)N/N=C\c2ccc[nH]2)cc1[N+](=O)[O-]	active: 2 µM	
Cc1ccc2sc(N(CCCN(C)C)C(=O)c3ccc(Br)s3)nc2c1C	inconclusive: 20 µM [inhibitor, single point]	

# (cont.)

Compound,Potency,"activity change, negative = inhibition"
Cc1ccc(/C=N/NC(=O)C(C)Oc2ccccc2[N+](=O)[O-])s1 (configuration not stated),"inconclusive: 35.5 µM [inhibitor, single point]",
O=C(c1ccco1)N1CCn2cccc2C1c1ccccc1 (configuration not stated),"inconclusive: 28.2 µM [inhibitor, single point]",
COc1ccc(/C=C2/S/C(=N/N=C3\CC4CCC3(C)C4(C)C)NC2=O)cc1 (configuration not stated),active: 10 µM,
COc1ccc(C2C(C(=O)c3ccccc3)=C(C)Nc3nc4ccccc4n32)c(OC)c1 (configuration not stated),active: 6.31 µM,
COc1cccc(OC)c1C(=O)Nc1ccc2c(c1)N(S(=O)(=O)c1cccs1)CCC2,,inactive: 2.65%
Cc1ccc(S(=O)(=O)N2CCCC(C(=O)NCCc3ccc4c(c3)OCO4)C2)cc1 (configuration not stated),"inconclusive: 11.2 µM [activator, single point]",
Cn1c(=O)c2ccccc2n(Cc2ccccc2Cl)c1=O,"inconclusive: 12.6 µM [activator, partial curve]",
Cc1ccc(S(=O)(=O)Oc2ccccc2/C=N/Nc2ccc(C(=O)O)cc2)cc1,,inactive: -17%
O=C(Nc1ccc2c(c1)OCO2)N1CCN(S(=O)(=O)c2ccc(Cl)cc2)CC1,,inactive: 30.1% [at 0.365 µM]
Cc1ccc(-c2cc(-c3ccccc3)c(C#N)c(N)n2)o1,active: 20 µM,
Nc1nc(CN2CCN(C(c3ccccc3)c3ccccc3)CC2)nc(Nc2ccccc2)n1,active: 3.16 µM,
O=[N+]([O-])c1c(Nc2ccccn2)cc(Cl)c2nonc12,active: 12.6 µM,
Cc1ccc(N(CCC#N)C(=O)CCl)cc1C,"inconclusive: 12.6 µM [inhibitor, single point]",
COc1ccc(-c2nn(-c3ccccc3F)cc2CNCCn2nc(C)cc2C)cc1,"inconclusive: 12.6 µM [inhibitor, single point]",
O=S(=O)(Nc1ccc(Cl)cc1)c1cccc2cccnc12,"inconclusive: 14.1 µM [inhibitor, single point]",
Cc1cnc(C(=O)N2CCCC(C(=O)c3cccc(OC(C)C)c3)C2)cn1 (configuration not stated),"inconclusive: 12.6 µM [activator, partial curve]",
Cc1ccc(NC(=O)CN(C)Cc2cc(=O)n3ccsc3n2)cc1,,inactive: -0.893%
CC(C)(C)OC(=O)N1CC=C2C(C#N)=C(N)C(C#N)(C#N)[C@H](c3cccnc3)[C@H]2C1,"inconclusive: 35.5 µM [activator, single point]",
C=CCn1c(-c2cc(Cl)ccc2OC)n[nH]c1=S,active: 11.2 µM,
CCCC/C=C/[C@H](C)[C@@](C)(COC(=O)c1ccc(Br)cc1)Cc1ccccc1,,inactive: 36.2%
CS(=O)(=O)CCNCc1nc(-c2ccc3ncnc(Nc4ccc(OCc5cccc(F)c5)c(Cl)c4)c3c2)cs1,"inconclusive: 35.5 µM [inhibitor, single point]",
CC1CCN(CCNC(=S)Nc2ccc(Cl)cc2)CC1,"inconclusive: 11.2 µM [inhibitor, partial curve, poor fit]",
N=c1n(Cc2ccccc2)c2ccccc2n1Cc1ccccc1,,inactive: 26.6%
